# Source: publication PMC6294507
# Chains of the proteins cited; added tags and fusions are not shown. Residues count along the entry.
# UniProt Q9BRJ7, residues 6-211: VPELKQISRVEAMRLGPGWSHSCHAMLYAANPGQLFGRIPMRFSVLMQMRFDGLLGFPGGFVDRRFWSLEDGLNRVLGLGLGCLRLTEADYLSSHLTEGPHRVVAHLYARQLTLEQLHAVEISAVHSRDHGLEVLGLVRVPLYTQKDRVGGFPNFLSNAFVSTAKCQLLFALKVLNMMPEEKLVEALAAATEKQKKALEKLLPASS
# UniProt P11142: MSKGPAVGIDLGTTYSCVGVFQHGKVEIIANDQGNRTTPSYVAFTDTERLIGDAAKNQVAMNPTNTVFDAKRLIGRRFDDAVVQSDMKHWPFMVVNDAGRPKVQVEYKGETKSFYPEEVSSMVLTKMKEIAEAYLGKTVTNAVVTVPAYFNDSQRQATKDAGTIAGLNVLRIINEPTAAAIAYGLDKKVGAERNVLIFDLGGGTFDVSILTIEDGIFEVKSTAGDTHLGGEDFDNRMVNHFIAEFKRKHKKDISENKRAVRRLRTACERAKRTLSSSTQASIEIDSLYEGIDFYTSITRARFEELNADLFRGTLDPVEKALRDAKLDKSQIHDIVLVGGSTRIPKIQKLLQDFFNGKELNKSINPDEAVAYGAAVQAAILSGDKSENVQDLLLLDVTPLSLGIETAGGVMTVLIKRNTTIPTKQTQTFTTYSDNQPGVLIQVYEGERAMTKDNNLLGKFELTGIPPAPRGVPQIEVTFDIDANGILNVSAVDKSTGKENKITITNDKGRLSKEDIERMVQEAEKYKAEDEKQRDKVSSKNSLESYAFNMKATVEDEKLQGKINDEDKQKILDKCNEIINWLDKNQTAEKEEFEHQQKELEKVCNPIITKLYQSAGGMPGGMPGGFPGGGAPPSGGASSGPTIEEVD
# UniProt P25391, residues 18-3075: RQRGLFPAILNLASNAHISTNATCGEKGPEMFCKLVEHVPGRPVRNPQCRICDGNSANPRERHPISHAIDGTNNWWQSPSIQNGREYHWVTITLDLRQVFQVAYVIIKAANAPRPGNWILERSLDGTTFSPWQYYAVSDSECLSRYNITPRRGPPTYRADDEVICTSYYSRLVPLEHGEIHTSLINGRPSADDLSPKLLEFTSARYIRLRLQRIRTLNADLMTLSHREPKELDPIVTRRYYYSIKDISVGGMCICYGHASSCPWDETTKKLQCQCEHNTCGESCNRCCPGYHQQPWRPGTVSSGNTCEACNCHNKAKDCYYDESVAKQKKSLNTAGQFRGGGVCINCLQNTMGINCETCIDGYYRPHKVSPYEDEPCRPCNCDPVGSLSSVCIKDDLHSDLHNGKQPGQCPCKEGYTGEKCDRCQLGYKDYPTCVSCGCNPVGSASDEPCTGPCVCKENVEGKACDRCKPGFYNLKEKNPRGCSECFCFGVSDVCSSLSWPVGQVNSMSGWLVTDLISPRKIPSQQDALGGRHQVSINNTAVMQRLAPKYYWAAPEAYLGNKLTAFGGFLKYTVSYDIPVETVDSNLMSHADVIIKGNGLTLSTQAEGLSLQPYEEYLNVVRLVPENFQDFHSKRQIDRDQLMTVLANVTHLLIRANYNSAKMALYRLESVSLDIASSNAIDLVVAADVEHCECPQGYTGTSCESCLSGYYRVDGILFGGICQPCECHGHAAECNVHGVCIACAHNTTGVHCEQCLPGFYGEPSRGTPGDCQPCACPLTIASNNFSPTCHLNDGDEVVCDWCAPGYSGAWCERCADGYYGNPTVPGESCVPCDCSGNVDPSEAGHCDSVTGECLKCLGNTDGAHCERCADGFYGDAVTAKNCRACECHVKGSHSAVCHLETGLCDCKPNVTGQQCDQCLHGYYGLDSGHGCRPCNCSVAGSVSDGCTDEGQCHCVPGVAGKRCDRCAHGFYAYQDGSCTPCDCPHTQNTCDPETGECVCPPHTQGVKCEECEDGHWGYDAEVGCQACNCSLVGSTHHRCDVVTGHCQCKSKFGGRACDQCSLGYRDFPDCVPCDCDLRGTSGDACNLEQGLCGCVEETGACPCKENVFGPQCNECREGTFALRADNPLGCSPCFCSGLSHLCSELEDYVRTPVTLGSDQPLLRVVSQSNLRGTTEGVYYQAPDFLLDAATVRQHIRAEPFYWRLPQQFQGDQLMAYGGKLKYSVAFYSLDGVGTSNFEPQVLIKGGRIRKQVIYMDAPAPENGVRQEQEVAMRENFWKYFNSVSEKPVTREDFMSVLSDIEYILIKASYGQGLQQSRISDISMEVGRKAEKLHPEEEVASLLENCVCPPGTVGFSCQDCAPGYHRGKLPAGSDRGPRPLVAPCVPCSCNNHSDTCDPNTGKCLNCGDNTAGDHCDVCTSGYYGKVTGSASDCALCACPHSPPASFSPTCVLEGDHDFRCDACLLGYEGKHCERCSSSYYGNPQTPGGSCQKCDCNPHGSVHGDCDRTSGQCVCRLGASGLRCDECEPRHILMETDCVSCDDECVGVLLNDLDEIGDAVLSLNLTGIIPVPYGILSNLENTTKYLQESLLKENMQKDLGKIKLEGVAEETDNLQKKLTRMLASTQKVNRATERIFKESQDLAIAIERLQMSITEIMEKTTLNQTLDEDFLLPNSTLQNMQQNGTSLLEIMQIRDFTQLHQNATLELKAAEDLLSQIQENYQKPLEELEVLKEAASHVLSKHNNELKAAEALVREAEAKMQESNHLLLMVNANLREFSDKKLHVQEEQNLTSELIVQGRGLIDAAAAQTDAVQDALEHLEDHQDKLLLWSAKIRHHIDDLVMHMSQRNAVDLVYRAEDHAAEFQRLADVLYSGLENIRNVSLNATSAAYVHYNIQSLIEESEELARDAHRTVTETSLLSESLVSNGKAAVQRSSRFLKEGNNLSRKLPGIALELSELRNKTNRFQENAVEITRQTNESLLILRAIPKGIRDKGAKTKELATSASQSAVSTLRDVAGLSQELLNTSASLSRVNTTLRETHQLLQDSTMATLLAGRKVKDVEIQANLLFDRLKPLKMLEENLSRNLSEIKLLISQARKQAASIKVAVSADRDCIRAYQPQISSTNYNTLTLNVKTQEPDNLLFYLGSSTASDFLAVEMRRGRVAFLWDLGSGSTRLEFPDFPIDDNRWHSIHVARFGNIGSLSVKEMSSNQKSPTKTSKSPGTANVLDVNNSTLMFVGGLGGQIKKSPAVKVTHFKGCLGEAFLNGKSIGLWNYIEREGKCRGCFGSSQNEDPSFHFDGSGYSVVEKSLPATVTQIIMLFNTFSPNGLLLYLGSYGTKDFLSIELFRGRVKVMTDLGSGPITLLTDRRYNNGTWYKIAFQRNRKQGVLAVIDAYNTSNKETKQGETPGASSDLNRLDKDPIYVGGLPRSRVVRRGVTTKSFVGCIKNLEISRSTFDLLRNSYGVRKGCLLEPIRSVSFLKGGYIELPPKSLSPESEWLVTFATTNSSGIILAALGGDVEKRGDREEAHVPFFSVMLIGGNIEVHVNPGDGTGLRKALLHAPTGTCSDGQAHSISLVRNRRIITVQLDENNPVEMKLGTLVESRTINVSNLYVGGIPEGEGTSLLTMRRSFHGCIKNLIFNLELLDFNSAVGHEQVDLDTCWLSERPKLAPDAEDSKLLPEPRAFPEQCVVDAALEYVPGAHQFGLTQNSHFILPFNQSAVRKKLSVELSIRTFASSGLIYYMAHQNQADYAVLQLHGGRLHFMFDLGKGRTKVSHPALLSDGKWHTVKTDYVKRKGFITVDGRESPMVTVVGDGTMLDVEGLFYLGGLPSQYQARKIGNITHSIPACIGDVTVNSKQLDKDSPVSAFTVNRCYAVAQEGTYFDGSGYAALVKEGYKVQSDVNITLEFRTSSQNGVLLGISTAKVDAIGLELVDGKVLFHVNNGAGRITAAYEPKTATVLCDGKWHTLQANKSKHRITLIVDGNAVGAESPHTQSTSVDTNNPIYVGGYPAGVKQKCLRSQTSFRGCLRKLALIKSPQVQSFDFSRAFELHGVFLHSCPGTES
# UniProt P48643: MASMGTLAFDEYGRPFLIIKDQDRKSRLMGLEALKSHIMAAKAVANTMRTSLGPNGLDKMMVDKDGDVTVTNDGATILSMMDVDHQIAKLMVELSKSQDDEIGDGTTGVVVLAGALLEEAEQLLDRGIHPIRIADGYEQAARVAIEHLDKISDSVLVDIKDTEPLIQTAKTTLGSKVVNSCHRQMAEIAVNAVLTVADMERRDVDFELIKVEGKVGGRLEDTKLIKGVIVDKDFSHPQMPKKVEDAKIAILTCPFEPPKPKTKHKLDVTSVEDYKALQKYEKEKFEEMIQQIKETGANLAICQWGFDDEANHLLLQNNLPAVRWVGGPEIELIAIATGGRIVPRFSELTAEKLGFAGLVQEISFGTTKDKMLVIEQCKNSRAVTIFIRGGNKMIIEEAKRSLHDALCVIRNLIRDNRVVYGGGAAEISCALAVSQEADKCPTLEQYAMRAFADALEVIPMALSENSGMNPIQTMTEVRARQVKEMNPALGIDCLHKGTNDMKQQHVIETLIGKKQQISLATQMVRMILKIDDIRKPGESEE
# UniProt Q15170: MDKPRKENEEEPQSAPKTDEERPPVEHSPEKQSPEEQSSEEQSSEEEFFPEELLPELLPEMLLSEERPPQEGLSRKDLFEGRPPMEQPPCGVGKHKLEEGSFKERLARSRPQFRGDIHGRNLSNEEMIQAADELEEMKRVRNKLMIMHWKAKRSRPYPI
# UniProt Q12888: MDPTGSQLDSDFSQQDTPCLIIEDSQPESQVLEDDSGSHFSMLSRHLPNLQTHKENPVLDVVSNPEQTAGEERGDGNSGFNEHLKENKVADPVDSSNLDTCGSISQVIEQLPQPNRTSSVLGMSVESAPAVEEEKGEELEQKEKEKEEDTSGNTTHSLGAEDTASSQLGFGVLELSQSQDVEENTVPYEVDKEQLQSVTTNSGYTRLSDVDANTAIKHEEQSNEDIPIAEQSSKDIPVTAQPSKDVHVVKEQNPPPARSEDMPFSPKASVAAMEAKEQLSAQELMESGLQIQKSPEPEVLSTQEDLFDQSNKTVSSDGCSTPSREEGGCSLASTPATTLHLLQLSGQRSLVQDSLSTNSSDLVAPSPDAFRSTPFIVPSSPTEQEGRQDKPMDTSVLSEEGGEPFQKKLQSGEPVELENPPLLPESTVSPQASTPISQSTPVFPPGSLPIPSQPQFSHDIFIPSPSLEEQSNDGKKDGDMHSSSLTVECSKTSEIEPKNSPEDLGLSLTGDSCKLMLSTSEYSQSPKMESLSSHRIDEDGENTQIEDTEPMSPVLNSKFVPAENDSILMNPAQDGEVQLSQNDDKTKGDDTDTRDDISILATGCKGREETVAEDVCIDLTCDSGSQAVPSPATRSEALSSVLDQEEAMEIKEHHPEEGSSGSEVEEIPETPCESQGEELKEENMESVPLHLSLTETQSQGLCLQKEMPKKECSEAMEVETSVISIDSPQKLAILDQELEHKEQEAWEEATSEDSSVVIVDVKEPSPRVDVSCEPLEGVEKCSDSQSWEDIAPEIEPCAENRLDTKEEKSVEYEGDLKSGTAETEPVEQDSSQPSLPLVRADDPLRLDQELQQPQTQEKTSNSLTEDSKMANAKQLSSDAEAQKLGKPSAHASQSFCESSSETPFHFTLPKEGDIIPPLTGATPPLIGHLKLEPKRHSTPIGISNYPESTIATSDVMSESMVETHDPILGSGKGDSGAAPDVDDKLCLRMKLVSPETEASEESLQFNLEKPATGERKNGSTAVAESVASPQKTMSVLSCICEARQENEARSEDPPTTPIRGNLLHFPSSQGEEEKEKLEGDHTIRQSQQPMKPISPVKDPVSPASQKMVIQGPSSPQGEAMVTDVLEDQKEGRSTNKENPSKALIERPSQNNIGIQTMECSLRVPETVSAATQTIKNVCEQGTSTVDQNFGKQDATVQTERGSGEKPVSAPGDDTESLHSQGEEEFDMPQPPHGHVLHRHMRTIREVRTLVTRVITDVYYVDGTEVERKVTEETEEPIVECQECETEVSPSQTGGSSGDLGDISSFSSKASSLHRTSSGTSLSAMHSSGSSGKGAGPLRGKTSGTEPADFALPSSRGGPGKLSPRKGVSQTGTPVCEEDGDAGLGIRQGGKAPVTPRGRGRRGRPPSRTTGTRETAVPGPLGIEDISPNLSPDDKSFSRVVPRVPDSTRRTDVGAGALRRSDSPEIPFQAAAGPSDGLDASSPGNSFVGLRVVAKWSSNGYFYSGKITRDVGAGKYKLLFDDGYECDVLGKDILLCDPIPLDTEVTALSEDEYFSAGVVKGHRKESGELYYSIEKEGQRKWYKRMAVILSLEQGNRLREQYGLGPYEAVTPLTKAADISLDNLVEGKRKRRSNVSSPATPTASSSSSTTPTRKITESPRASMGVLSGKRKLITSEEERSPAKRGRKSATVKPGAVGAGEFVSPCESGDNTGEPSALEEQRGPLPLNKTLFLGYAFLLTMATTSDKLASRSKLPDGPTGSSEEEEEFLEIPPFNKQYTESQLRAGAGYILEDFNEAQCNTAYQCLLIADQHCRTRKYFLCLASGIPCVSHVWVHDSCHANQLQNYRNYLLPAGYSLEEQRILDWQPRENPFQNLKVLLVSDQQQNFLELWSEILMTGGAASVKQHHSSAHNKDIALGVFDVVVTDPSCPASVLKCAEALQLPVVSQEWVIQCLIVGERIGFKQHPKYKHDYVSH
# No constants are given. Whether binding was seen depends on the method and setting. Binding seen in cells or lysates may run through a third protein. Here binding means that the protein was enriched with, or labelled near, the bait; the list need not be complete.
# B1: Serine/threonine-protein phosphatase 6 catalytic subunit (enzyme, UniProt O00743 1-305)
# chain: MAPLDLDKYVEIARLCKYLPENDLKRLCDYVCDLLLEESNVQPVSTPVTVCGDIHGQFYDLCELFRTGGQVPDTNYIFMGDFVDRGYYSLETFTYLLALKAKWPDRITLLRGNHESRQITQVYGFYDECQTKYGNANAWRYCTKVFDMLTVAALIDEQILCVHGGLSPDIKTLDQIRTIERNQEIPHKGAFCDLVWSDPEDVDTWAISPRGAGWLFGAKVTNEFVHINNLKLICRAHQLVHEGYKFMFDEKLVTVWSAPNYCYRCGNIASIMVFKDVNTREPKLFRAVPDSERVIPPRTTTPYFL
# Biological target: SDOS-eGFP (human) (UniProt Q9BRJ7)
# Assay: affinity purification with mass spectrometry; eGFP-fusion proteins captured from HeLa Flp In TRex lysates on GFP-Trap agarose beads, 2 h, 4 C; lysis buffer 150 mM NaCl, 10 mM Tris-HCl pH 7.5, 1% Triton X-100, 5 mM MgCl2, 5 mM DTT; RNase A during the second wash; label-free quantitative proteomics against unfused eGFP
row,binding,Molecule
1,binds,B1

# Biological target: SDOS-eGFP (human) (UniProt Q9BRJ7)
# Assay: as above
# Remark: another data set of the same source
row,binding,Molecule
1,binds,78 kDa glucose-regulated protein (from UniProt P11021 19-654)
2,binds,BAG family molecular chaperone regulator 2 (from UniProt O95816 1-211)
3,binds,Heat shock cognate 71 kDa protein (from UniProt P11142 1-646)
4,binds,Histone deacetylase 6 (from UniProt Q9UBN7 1-1215) (enzyme)
5,binds,Laminin subunit alpha-1 (from UniProt P25391 18-3075)
6,binds,Large neutral amino acids transporter small subunit 1 (from UniProt Q01650 1-507)
7,binds,Sequestosome-1 (from UniProt Q13501 1-440)
8,binds,T-complex protein 1 subunit epsilon (from UniProt P48643 1-541)
9,binds,T-complex protein 1 subunit eta (from UniProt Q99832 1-543)
10,binds,T-complex protein 1 subunit theta (from UniProt P50990 1-548)
11,binds,Transcription elongation factor A protein-like 1 (from UniProt Q15170 1-159)
12,binds,Tubulin alpha-4A chain (from UniProt P68366 1-448)
13,binds,Tubulin beta-8 chain (from UniProt Q3ZCM7 1-444)
14,binds,Tumor suppressor p53-binding protein 1 (from UniProt Q12888 1-1972)
15,binds,U8 snoRNA-decapping enzyme (from UniProt Q96DE0 1-195)
16,binds,Ubiquitin carboxyl-terminal hydrolase 11 (from UniProt P51784 1-963) (enzyme)
